Assay results from patent publication US8586706B2, “Peptide vaccine using mimic molecules of amyloid β peptide” (Kagoshima University, priority 2007, dated 2013).

Assay: Non-specific binding of blood sera of immunized mouse to 0.5% gelatin (ELISA background)
Format: in vivo, BALB/c mouse
Conditions: serum of day 74 diluted 200-fold; mouse immunized hypodermically with streptavidin conjugate of biotinylated peptide / aluminum hydroxide gel

Substance | non-specific binding activity (absorbance at 405 nm; the subtracted OD value) of the blood sera to 0.5% gelatin
TAT-B6-L1: B6-L1 sequence having a TAT sequence fused at the amino terminus, SEQ ID NO: 24 (YGRKKRRQRRRGMLDIFAPIRHV; Designed peptide based on the DNA sequence of phage binding to human antiamyloid beta peptide antibody) | 0.0255
TAT-B7-S15: B7-S15 sequence having a TAT sequence fused at the amino terminus, SEQ ID NO: 27 (YGRKKRRQRRRSYGTKPWMSG; Designed peptide based on the DNA sequence of phage binding to human antiamyloid beta peptide antibody) | 0.058
TAT-B7-C15: B7-C15 sequence (glycine added to carboxyl terminus) having a TAT sequence fused at the amino terminus, SEQ ID NO: 26 (YGRKKRRQRRRCYGTKPWMCG; Designed peptide based on the DNA sequence of phage binding to human antiamyloid beta peptide antibody) | 0.035
